Measured values as given in the supplement of paper PMC10849652.
Some of the results follow.

Sequences of proteins named here, by UniProt entry; tags and fusion partners are left off. A change or cut given only in a name is not applied to a line headed by its entry.
UniProt Q8WYQ3: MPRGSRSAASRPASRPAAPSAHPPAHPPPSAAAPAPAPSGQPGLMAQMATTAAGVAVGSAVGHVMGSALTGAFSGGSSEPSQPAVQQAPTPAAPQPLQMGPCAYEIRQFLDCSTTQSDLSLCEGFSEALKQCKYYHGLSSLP
UniProt Q8N3C7: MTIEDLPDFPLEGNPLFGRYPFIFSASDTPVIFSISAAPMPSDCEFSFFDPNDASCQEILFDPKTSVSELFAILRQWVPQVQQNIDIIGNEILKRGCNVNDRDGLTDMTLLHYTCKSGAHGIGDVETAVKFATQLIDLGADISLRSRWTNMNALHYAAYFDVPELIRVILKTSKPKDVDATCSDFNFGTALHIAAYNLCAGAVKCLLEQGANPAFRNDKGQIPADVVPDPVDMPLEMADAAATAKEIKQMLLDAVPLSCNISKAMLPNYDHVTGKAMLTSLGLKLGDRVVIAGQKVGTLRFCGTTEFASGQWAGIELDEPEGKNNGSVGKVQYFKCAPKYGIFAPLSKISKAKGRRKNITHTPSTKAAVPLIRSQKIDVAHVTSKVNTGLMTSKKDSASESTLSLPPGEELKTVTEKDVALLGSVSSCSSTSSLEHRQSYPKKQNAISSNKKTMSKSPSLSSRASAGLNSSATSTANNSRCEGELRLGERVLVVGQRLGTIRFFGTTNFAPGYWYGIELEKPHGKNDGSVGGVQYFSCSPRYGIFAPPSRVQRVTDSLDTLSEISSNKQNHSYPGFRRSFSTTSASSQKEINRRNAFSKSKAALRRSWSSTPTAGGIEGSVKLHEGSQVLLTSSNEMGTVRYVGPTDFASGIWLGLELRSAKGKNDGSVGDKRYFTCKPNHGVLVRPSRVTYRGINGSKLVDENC
UniProt Q9UBY8, whole entry, looked up: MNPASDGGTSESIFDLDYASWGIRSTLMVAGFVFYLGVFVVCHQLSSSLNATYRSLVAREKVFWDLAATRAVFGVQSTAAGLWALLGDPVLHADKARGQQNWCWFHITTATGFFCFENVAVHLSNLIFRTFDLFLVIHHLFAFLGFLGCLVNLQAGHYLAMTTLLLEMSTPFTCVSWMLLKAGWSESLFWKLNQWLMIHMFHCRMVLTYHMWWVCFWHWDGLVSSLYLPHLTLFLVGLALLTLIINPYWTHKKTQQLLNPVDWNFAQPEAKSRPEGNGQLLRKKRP
UniProt P33552, whole entry, looked up: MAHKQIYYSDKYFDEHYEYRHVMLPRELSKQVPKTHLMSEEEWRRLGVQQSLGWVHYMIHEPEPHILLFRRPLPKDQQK
UniProt P49761: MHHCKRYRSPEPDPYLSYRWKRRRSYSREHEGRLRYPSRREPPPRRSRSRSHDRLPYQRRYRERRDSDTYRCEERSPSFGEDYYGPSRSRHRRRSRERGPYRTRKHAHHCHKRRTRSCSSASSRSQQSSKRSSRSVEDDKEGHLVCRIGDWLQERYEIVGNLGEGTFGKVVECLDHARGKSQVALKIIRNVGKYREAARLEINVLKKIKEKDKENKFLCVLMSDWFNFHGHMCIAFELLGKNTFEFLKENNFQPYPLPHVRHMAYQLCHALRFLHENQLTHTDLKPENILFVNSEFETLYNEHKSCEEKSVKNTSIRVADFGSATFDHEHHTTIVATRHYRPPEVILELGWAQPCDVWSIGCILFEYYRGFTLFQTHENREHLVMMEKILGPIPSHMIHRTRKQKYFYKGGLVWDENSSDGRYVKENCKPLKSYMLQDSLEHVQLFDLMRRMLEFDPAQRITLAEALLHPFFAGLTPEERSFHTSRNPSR
UniProt Q9BUK0: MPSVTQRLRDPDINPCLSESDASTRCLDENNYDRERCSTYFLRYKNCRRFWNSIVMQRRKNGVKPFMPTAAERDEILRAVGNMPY
UniProt Q9NSE2: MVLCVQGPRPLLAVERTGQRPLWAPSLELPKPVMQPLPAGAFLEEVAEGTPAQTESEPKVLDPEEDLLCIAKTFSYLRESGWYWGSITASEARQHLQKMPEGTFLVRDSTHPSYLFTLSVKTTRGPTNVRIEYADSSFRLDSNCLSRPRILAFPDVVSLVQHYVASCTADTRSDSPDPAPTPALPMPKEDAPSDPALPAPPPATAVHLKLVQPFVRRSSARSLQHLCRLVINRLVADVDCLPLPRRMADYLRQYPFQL
UniProt P0C7P0: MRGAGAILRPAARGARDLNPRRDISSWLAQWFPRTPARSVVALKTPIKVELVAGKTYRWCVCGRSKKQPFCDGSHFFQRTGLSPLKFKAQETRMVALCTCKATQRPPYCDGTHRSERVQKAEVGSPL
UniProt Q9NWW5: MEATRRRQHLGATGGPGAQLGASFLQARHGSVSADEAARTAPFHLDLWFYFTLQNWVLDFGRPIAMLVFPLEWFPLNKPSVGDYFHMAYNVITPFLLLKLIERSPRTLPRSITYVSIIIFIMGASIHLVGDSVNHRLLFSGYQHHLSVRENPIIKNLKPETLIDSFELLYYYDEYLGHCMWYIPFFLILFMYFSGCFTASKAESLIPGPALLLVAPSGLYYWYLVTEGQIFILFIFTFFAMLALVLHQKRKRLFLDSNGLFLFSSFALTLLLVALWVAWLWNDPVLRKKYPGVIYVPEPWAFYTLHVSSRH
UniProt Q8TD26: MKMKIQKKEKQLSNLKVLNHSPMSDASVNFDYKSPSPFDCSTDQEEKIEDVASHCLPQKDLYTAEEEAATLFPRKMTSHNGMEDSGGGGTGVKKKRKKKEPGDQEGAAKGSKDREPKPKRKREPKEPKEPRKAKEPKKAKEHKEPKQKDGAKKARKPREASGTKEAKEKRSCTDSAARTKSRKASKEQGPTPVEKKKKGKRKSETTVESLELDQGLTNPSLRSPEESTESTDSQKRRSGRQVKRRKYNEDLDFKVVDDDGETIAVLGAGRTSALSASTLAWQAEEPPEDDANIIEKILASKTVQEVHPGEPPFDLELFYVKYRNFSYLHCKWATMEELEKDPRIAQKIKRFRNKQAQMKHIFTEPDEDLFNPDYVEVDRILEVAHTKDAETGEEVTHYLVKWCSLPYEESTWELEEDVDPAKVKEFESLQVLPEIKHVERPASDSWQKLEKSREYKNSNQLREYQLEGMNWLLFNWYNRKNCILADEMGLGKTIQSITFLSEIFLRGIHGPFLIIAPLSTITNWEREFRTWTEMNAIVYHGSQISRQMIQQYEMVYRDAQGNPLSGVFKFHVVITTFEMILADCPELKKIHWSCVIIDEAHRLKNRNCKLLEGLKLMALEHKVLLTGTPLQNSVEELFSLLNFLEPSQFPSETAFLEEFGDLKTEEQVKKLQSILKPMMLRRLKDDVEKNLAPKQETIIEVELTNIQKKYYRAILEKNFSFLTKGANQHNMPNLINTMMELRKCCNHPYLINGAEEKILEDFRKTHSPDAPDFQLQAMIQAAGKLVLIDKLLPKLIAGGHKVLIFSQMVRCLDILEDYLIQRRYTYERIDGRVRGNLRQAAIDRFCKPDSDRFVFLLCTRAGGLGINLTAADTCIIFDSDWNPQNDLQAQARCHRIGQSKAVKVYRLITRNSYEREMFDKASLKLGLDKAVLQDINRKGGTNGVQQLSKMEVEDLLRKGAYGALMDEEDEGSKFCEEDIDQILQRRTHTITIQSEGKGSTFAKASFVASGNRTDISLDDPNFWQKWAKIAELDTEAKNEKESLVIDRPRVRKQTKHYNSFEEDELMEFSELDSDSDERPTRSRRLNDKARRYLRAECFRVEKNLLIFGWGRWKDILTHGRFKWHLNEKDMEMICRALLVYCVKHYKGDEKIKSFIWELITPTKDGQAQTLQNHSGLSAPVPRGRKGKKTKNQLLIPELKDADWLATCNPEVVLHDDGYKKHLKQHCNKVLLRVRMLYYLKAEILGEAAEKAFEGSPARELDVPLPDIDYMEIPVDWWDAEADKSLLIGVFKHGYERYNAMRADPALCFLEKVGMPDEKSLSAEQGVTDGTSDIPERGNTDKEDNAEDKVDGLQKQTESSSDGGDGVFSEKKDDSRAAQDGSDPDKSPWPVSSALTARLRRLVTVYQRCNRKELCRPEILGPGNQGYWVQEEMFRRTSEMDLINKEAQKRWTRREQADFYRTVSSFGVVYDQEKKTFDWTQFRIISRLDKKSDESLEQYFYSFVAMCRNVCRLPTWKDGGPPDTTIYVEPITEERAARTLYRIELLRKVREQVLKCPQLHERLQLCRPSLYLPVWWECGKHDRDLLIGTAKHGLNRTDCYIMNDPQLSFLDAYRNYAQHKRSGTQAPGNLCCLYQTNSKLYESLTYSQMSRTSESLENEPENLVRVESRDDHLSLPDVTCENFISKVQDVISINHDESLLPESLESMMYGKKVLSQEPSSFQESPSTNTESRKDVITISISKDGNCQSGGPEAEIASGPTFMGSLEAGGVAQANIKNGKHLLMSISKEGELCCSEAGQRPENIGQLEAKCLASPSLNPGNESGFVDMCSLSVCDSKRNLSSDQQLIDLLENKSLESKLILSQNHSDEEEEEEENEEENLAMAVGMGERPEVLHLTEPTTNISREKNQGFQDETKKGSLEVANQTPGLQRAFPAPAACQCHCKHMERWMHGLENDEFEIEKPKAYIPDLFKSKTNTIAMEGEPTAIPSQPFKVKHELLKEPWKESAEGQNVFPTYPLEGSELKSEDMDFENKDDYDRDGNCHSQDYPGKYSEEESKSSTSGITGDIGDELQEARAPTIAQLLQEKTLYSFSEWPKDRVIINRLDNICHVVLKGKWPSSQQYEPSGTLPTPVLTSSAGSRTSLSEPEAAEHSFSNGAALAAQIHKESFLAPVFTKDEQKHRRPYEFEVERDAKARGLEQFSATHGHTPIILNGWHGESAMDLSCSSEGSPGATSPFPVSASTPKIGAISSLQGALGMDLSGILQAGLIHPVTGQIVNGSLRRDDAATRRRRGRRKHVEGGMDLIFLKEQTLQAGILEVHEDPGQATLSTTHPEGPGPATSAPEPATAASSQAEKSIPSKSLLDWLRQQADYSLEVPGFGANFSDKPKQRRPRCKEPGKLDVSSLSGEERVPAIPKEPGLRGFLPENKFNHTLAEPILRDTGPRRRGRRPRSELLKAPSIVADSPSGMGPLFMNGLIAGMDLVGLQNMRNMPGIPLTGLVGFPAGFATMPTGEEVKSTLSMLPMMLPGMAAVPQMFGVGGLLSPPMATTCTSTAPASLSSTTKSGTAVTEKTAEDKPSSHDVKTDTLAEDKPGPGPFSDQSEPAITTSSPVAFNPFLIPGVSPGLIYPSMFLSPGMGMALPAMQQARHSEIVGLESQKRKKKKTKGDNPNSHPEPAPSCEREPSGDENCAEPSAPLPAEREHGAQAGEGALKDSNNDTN
UniProt P49759: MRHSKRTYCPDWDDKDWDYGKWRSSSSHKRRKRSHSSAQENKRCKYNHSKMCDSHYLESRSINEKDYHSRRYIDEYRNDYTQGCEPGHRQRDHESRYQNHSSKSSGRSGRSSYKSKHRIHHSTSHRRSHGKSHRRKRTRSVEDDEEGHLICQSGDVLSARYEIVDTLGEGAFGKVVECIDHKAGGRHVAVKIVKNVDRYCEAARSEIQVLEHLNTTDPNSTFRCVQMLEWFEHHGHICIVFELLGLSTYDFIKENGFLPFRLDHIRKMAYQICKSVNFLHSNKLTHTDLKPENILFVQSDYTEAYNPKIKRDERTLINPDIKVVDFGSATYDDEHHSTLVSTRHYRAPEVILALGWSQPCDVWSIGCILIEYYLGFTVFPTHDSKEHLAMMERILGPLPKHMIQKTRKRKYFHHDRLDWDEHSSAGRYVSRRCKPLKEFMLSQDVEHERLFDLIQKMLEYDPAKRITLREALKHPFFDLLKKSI
UniProt Q8IYT2: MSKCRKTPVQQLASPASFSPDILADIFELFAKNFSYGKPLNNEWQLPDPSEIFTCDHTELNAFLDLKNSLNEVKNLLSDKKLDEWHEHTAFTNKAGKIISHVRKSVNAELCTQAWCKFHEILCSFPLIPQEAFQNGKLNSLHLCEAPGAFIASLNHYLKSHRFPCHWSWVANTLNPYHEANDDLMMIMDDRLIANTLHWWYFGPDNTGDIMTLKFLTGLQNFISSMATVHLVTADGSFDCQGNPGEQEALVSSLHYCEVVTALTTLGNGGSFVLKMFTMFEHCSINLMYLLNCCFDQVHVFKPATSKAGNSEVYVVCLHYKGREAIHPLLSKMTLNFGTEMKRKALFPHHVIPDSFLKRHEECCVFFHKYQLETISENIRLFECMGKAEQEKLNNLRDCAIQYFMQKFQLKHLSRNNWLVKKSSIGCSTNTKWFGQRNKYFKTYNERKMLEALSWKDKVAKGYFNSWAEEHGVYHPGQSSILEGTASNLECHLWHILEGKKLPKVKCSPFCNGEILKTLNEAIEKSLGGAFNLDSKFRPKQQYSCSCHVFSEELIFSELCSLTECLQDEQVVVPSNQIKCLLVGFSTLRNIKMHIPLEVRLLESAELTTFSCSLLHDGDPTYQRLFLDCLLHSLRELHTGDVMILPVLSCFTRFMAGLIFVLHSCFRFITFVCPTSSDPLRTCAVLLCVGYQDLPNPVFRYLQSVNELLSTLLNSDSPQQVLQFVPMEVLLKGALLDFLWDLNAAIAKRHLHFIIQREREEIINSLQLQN

Legend:
Experiment in all cases: log2 fold change, soluble protein after heating vs DMSO (PISA); higher = thermal stabilisation; K562 lysate, 10 uM; active = over 0.2 and 3.5 SD of the protein, either way, in both replicates (recomputed)
vemurafenib = compound: CCCS(=O)(=O)Nc1ccc(F)c(C(=O)c2c[nH]c3ncc(-c4ccc(Cl)cc4)cc23)c1F [vemurafenib]
Method in brief: (§1)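 Following dounce homogenisation of K562 pellets in PBS pH 7.4 with 1 mM MgCl2, crude extract at 1 mg/mL protein was incubated for 30 min with 10 μM compound. Aliquots were then heated for 3 min over 48°C-58°C and pooled, NP-40 was added to 0.5% at 4°C, and soluble protein was recovered as the supernatant at 21,000xg for 90 min. Channel-sum-equalised TMTpro 16plex LC-MS/MS quantified this protein. Each value, from duplicates, is a log-two fold change in thermal stability relative to solvent controls.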

[1] = compound: CCCS(=O)(=O)Nc1ccc(F)c(C(=O)c2c[nH]c3ncc(Cl)cc23)c1F
Method in brief: as §1

barasertib = compound: CCN(CCCOc1ccc2c(Nc3cc(CC(=O)Nc4cccc(F)c4)[nH]n3)ncnc2c1)CCOP(=O)(O)O [barasertib]
Method in brief: as §1

[2] = compound: CC[C@@H]1C(=O)N(C)c2cnc(Nc3ccc(C(=O)NC4CCN(C)CC4)cc3OC)nc2N1C1CCCC1
Method in brief: as §1

volasertib = compound: CC[C@@H]1C(=O)N(C)c2cnc(Nc3ccc(C(=O)N[C@H]4CC[C@H](N5CCN(CC6CC6)CC5)CC4)cc3OC)nc2N1C(C)C [volasertib]
Method in brief: as §1

[3] = compound: CCn1c(C(=O)N(C2CC2)C2CC2)cc2c3c(ncn3C)c(Nc3cc(C)n(C)n3)nc21
Method in brief: as §1

[4] = compound: CCn1cc(-c2ccnc3[nH]c(-c4cccc(CN(C)C)c4)cc23)c(-c2ccc(NC(=O)N(C)C)cc2)n1
Method in brief: as §1

[5] = compound: CN1CCC(CNc2ccc3ncc(-c4cccc(OC(F)(F)F)c4)n3n2)CC1
Method in brief: as §1

saracatinib = compound: CN1CCN(CCOc2cc(OC3CCOCC3)c3c(Nc4c(Cl)ccc5c4OCO5)ncnc3c2)CC1 [saracatinib]
Method in brief: as §1

alvocidib = compound: CN1CC[C@H](c2c(O)cc(O)c3c(=O)cc(-c4ccccc4Cl)oc23)[C@H](O)C1 [alvocidib]
Method in brief: as §1

Tubastatin A = compound: CN1CCc2c(c3ccccc3n2Cc2ccc(C(=O)NO)cc2)C1 [Tubastatin A]
Method in brief: as §1

[6] = compound: CNC(=O)C1=CC=CC=C1NC2=NC(=NC=C2Cl)NC3=C(C=C(C=C3)N4CCOCC4)OC
Method in brief: as §1

defactinib = compound: CNC(=O)c1ccc(Nc2ncc(C(F)(F)F)c(NCc3nccnc3N(C)S(C)(=O)=O)n2)cc1 [defactinib]
Method in brief: as §1

[7] = compound: CNc1nc(-c2ccc3c(N)n[nH]c3c2)cc(N2C[C@@H](C(=O)NC3CCCCC3)CC[C@H]2C)n1
Method in brief: as §1

encorafenib = compound: COC(=O)N[C@@H](C)CNc1nccc(-c2cn(C(C)C)nc2-c2cc(Cl)cc(NS(C)(=O)=O)c2F)n1 [encorafenib]
Method in brief: as §1

[8] = compound: COC(=O)[C@H](CCSC)NC(=O)C1=C(C=C(C=C1)NC[C@H](CS)N)C2=CC=CC=C2
Method in brief: as §1

alisertib = compound: COc1cc(Nc2ncc3c(n2)-c2ccc(Cl)cc2C(c2c(F)cccc2OC)=NC3)ccc1C(=O)O [alisertib]
Method in brief: as §1

[9] = compound: COc1cc2nc(-c3cc(F)ccc3O)nc(N[C@@H]3CNC[C@H]3C(C)(C)O)c2cc1OC
Method in brief: as §1

gefitinib = compound: COc1cc2ncnc(Nc3ccc(F)c(Cl)c3)c2cc1OCCCN1CCOCC1 [gefitinib]
Method in brief: as §1

sotrastaurin = compound: CN1CCN(c2nc(C3=C(c4c[nH]c5ccccc45)C(=O)NC3=O)c3ccccc3n2)CC1 [sotrastaurin]
Method in brief: as §1

Measured: log2 fold change

CHCHD10 (UniProt Q8WYQ3)
inactive: vemurafenib 0 | [1] 0.028 | barasertib 0.006 | [2] 0.041 | volasertib -0.009 | [3] 0.129 | [4] 0.196 | [5] -0.117 | saracatinib 0.014 | alvocidib -0.001 | Tubastatin A 0.026 | [6] 0.009 | defactinib -0.044 | [7] -0.066 | encorafenib -0.056 | [8] -0.084 | alisertib -0.105 | [9] -0.009 | gefitinib -0.119

CLUAP1 (UniProt I3L2E1)
inactive: vemurafenib 0.18 | [1] 0.138 | barasertib 0.066 | [2] 0.211 | volasertib 0.213 | [3] -0.501 | sotrastaurin -0.247 | Tubastatin A 0.051 | [6] 0.099 | defactinib -0.744 | encorafenib -0.382 | [8] 0.142 | alisertib -0.19 | [9] 0.024 | gefitinib -0.168

CLCN6 isoform 5 (UniProt P51797)
inactive: vemurafenib 0.019 | [1] 0.021 | barasertib 0.127 | [2] 0.072 | volasertib 0.04 | [3] -0.1 | saracatinib 0.075 | sotrastaurin 0.05 | Tubastatin A -0.059 | [6] -0.02 | defactinib -0.101 | [7] 0.038 | encorafenib -0.02 | [8] 0.034 | [9] 0.038

CLUL1 (UniProt Q15846)
inactive: vemurafenib 0.019 | [1] -0.128 | barasertib 0.358 | volasertib -0.018 | [4] -0.332 | [5] 0.065 | alvocidib -0.02 | defactinib -0.108 | alisertib -0.049 | [9] 0.07 | gefitinib 0.058

CLIP4 (UniProt Q8N3C7)
inactive: vemurafenib -0.006 | [1] 0.012 | barasertib 0.098 | [2] -0.04 | volasertib 0.04 | [3] 0.026 | [4] -0.045 | [5] 0.028 | sotrastaurin -0.025 | alvocidib -0.109 | Tubastatin A 0.04 | [6] 0.016 | defactinib -0.107 | encorafenib -0.076 | [8] -0.143 | alisertib -0.013 | [9] -0.018 | gefitinib -0.079

CLINT1 (UniProt Q14677)
inactive: vemurafenib 0.131 | barasertib 0.075 | [2] 0.182 | [4] -0.051 | [5] -0.005 | saracatinib 0.031 | sotrastaurin -0.102 | alvocidib -0.077 | defactinib 0.013 | [7] 0.234 | encorafenib 0.199 | [8] 0

CLN8 (UniProt Q9UBY8)
inactive: [1] -0.195 | barasertib 0.221 | [2] -0.257 | volasertib -0.006 | [3] 0.034 | [4] -0.018 | [5] -0.011 | saracatinib 0.067 | sotrastaurin 0.044 | alvocidib -0.158 | Tubastatin A 0.005 | [6] 0.041 | [7] -0.022 | encorafenib 0.038 | [8] -0.056 | alisertib -0.043 | [9] -0.083 | gefitinib 0.16

CKS2 (UniProt P33552)
inactive: vemurafenib -0.142 | [2] -0.139 | [4] -0.026 | [5] 0.036 | alvocidib 0.081 | defactinib -0.009 | encorafenib 0.003 | [8] -0.113 | alisertib 0.081 | gefitinib -0.016

CLUAP1 (UniProt Q96AJ1)
inactive: vemurafenib -0.424 | [1] 0.092 | [2] -0.357 | volasertib 0.034 | [3] 0.075 | [4] 0.107 | [5] 0.084 | saracatinib 0.201 | sotrastaurin -0.057 | alvocidib 0.013 | Tubastatin A -0.022 | [6] 0.067 | defactinib -0.057 | [7] -0.132 | encorafenib 0.009 | [8] -0.004 | [9] -0.03

CLK3 (UniProt P49761)
inactive: vemurafenib 0.101 | [1] -0.008 | [2] 0.027 | volasertib -0.03 | saracatinib -0.056 | sotrastaurin -0.065 | [6] 0.032 | defactinib -0.004 | [7] -0.144 | encorafenib -0.032 | [8] 0.122 | [9] -0.003

CHCHD7 isoform 4 (UniProt Q9BUK0)
active: [4] -0.71
inactive: vemurafenib 0.026 | [1] 0.06 | barasertib -0.026 | [2] 0.073 | volasertib -0.064 | [3] 0.021 | [5] 0.155 | saracatinib -0.021 | sotrastaurin 0.077 | alvocidib -0.097 | Tubastatin A 0.082 | defactinib -0.009 | [7] -0.141 | encorafenib 0.005 | [8] -0.003 | alisertib 0.177 | [9] 0.027 | gefitinib 0.118

CISH isoform 3 (UniProt Q9NSE2)
inactive: vemurafenib -0.043 | defactinib 0.084

CISD3 (UniProt P0C7P0)
inactive: vemurafenib -0.049 | [1] 0.003 | [2] 0.037 | volasertib -0.022 | [3] 0.046 | [4] -0.029 | [5] -0.088 | saracatinib -0.028 | sotrastaurin -0.013 | alvocidib -0.029 | Tubastatin A 0.028 | [6] -0.043 | defactinib 0.014 | [7] 0.066 | encorafenib -0.028 | [8] -0.039 | alisertib -0.032 | [9] 0.03 | gefitinib 0.023

CLN6 (UniProt Q9NWW5)
inactive: vemurafenib 0.045 | barasertib 0.022 | [2] 0.025 | [3] -0.025 | saracatinib 0.082 | sotrastaurin 0.072 | Tubastatin A 0.03 | [6] 0.018 | defactinib -0.07 | [7] 0.058 | encorafenib 0.041 | [8] -0.021 | alisertib -0.029 | gefitinib -0.037

CHD6 (UniProt Q8TD26)
inactive: vemurafenib 0.002 | barasertib 0.117 | [2] 0.162 | [3] 0.061 | [4] 0.039 | [5] 0.003 | saracatinib -0.142 | sotrastaurin -0.022 | alvocidib 0.058 | Tubastatin A -0.164 | defactinib 0.107 | [7] -0.224 | encorafenib -0.018 | [8] 0.074 | alisertib 0.042 | gefitinib -0.021

4 neighbouring entries out of the list so far:
CHCHD7 isoform 4 (UniProt Q9BUK0)
active: [4] -0.71
inactive: vemurafenib 0.026 | [1] 0.06 | barasertib -0.026 | [2] 0.073 | volasertib -0.064 | [3] 0.021 | [5] 0.155 | saracatinib -0.021 | sotrastaurin 0.077 | alvocidib -0.097 | Tubastatin A 0.082 | defactinib -0.009 | [7] -0.141 | encorafenib 0.005 | [8] -0.003 | alisertib 0.177 | [9] 0.027 | gefitinib 0.118

CISH isoform 3 (UniProt Q9NSE2)
inactive: vemurafenib -0.043 | defactinib 0.084

CISD3 (UniProt P0C7P0)
inactive: vemurafenib -0.049 | [1] 0.003 | [2] 0.037 | volasertib -0.022 | [3] 0.046 | [4] -0.029 | [5] -0.088 | saracatinib -0.028 | sotrastaurin -0.013 | alvocidib -0.029 | Tubastatin A 0.028 | [6] -0.043 | defactinib 0.014 | [7] 0.066 | encorafenib -0.028 | [8] -0.039 | alisertib -0.032 | [9] 0.03 | gefitinib 0.023

CLN6 (UniProt Q9NWW5)
inactive: vemurafenib 0.045 | barasertib 0.022 | [2] 0.025 | [3] -0.025 | saracatinib 0.082 | sotrastaurin 0.072 | Tubastatin A 0.03 | [6] 0.018 | defactinib -0.07 | [7] 0.058 | encorafenib 0.041 | [8] -0.021 | alisertib -0.029 | gefitinib -0.037

(further entries)

CLK1 isoform 3 (UniProt P49759)
inactive: barasertib 0.109 | [2] 0.424 | volasertib 0.065 | [3] -0.28 | [4] -0.224 | [5] -0.019 | Tubastatin A 0.168 | [6] -0.063 | encorafenib -0.143 | [8] 0.126 | alisertib -0.071 | [9] 0.237 | gefitinib -0.025

CLEC16A isoform 2 (UniProt Q2KHT3)
inactive: [1] -0.076 | barasertib 0.095 | volasertib -0.127 | [3] 0.052 | saracatinib 0.063 | sotrastaurin 0.118 | Tubastatin A -0.035 | [6] -0.013 | [7] -0.067 | alisertib -0.098 | [9] 0.016 | gefitinib 0.188

CHSY1 (UniProt Q86X52)
inactive: [1] 0.002 | barasertib 0.015 | volasertib -0.215 | [3] 0.06 | [4] -0.315 | [5] -0.08 | saracatinib 0.02 | alvocidib -0.135 | Tubastatin A 0.043 | [6] 0.237 | [7] -0.008 | alisertib -0.1 | [9] 0.076 | gefitinib 0.023

CLEC11A (UniProt Q9Y240)
inactive: [1] -0.033 | [2] -0.099 | volasertib 0.001 | sotrastaurin -0.098 | [6] 0.146 | encorafenib 0.085 | [8] 0.05 | [9] -0.029

CMTR2 (UniProt Q8IYT2)
inactive: [1] 0.16 | volasertib 0.214 | [3] -0.188 | Tubastatin A 0.015 | alisertib 0.024 | [9] -0.101 | gefitinib 0.032
